Where a chain is given by its changes, count along the chain named. No constants are given. Whether binding was seen depends on the method and setting.
T1: OsS1Fa2 (site 1 binding factor a2) (rice (Oryza sativa)) (UniProt Q7XLX6)
T1 sequence: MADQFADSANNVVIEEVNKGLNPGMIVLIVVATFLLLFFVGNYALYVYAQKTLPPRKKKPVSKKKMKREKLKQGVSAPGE

T2: OsMIF2 (mini zinc finger 2) (rice (Oryza sativa)) (UniProt B9GBM3)
T2 sequence: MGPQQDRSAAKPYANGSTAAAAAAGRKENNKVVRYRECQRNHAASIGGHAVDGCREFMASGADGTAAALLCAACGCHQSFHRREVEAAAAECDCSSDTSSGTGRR

T3: OsbZIP58 (bZIP transcription factor 58) (rice (Oryza sativa)) (UniProt Q6ZLB0)
T3 sequence: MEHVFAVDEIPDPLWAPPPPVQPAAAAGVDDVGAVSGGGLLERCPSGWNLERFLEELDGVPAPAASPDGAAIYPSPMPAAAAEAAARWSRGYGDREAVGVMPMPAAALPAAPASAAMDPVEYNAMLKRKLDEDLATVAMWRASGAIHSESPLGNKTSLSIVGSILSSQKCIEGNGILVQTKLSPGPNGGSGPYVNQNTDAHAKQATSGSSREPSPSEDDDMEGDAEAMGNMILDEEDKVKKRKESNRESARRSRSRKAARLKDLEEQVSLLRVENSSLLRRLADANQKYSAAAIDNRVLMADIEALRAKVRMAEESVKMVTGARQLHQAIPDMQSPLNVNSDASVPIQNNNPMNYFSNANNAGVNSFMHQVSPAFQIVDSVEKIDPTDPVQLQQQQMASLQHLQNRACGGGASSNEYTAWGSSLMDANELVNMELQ

T4: OsS1Fa1 (site 1 binding factor a1) (rice (Oryza sativa)) (UniProt P42553)
T4 sequence: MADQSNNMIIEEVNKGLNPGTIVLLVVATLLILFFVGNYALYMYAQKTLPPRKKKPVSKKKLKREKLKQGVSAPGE

B1: OsMIF1 (mini zinc finger 1) (protein, UniProt Q2RB28 1-105)
chain: T2 sequence with D63E, Q78R
B2: OsMIF2 (mini zinc finger 2) (protein, UniProt B9GBM3 1-105)
chain: T2 sequence
B3: OsbZIP58 (bZIP transcription factor 58) (protein, UniProt Q6ZLB0 1-436)
chain: T3 sequence
B4: OsS1Fa1 (site 1 binding factor a1) (protein, UniProt P42553 1-76)
chain: T4 sequence

Key:
Experiment in all cases: two-hybrid; ProQuest Two-Hybrid System with Gateway Technology; full-length cDNAs in bait (pDEST32) and prey (pDEST22) vectors; yeast strain MaV203
[1] = biological target: T1, OsS1Fa2 (site 1 binding factor a2) (rice (Oryza sativa))
[2] = biological target: T2, OsMIF2 (mini zinc finger 2) (rice (Oryza sativa))
[3] = biological target: T3, OsbZIP58 (bZIP transcription factor 58) (rice (Oryza sativa))
[4] = biological target: T4, OsS1Fa1 (site 1 binding factor a1) (rice (Oryza sativa))

| Binder | binding [1] | binding [2] | binding [3] | binding [4] |
| --- | --- | --- | --- | --- |
| B1 | no binding | no binding | no binding | no binding |
| B2 | no binding |  | no binding | no binding |
| B3 | no binding |  |  | no binding |
| B4 | no binding |  |  |  |
